These results are taken from PubChem BioAssay AID328 (DTP/NCI, 2004).

The list is a part of this screen's results and no random one: it is rich in T/C values a quarter to a half above the control, in often repeated tests (any T/C) and in doses without a T/C. Other doses and runs of a compound stand elsewhere. T/C is the treated group as % of the vehicle group. Some entries give survivors of the animals treated and no T/C: the source holds a T/C of zero for them, seemingly a mark for toxic or unscored doses. Some doses without a T/C left all or most animals alive at the check, yet need not have been tolerated: survival well below the control is almost never listed, so the zero probably covers shortened survival too. Survivors were counted at the toxicity check, usually on the fifth day, unless a day is given; later deaths do not show. Schedules are NCI's codes, read here as Q, the interval in days (D) or hours (H), X, the number of doses. Some entries were tested several times; the results are listed from low to high. For survival time, the PubChem record calls one and a half times the control and up active, and a quarter to a half above the control has no call in these data; cut-offs in other NCI protocols can differ. Some T/C values carry the count of animals alive at the toxicity check (mostly the fifth day); without a count, all were alive then.

The subject of the experiment is BDF1 mice, P388 leukemia ip, median survival T/C. Description: NCI In Vivo Anticancer Drug Screen. Data for tumor model P388 Leukemia (intraperitoneal) in B6D2F1 (BDF1) mice. Particulars: T/C endpoint: median survival time, higher T/C = longer survival. The procedure, abridged: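 Reported as T/C, where T is the survival measurement in dosed animals and C the same measurement in vehicle controls.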

Where [1] appears, read: dose: 50.0 mg/kg/injection, schedule: Q01DX009 (ip), vehicle: saline.
Setting [2] is: dose: 75.0 mg/kg/injection, schedule: Q04DX003 (ip), vehicle: saline.
[3] abbreviates: dose: 100.0 mg/kg/injection, schedule: Q04DX003 (ip), vehicle: saline.

On to `CN(C)CCCOC(=O)CC(C)(C)C`, for which the survivor count was 0 of 4 (dose: 200.0 mg/kg/injection, schedule: Q01DX005 (ip), vehicle: water) and 2 of 4 (dose: 400.0 mg/kg/injection, schedule: Q01DX005 (ip), vehicle: water).

Consider `CN(C)N=Nc1ccccc1Cl`, for which, for the setting “dose: 50.0 mg/kg/injection, schedule: Q01DX009 (ip), vehicle: saline with Tween-80”, the T/C is 126 % of control. In addition, where the note is “dose: 200.0 mg/kg/injection, schedule: Q01DX009 (ip), vehicle: saline with Tween-80”, the survivor count is recorded as 0 of 6.

On to `C1=CC=CCC=C1`, for which the T/C (dose: 35.0 mg/kg/injection, schedule: Q01DX009 (ip), vehicle: saline) was 127 % of control [5 of 6 alive]. The survivor count is 3 of 6 under setting [1]; 0 of 6 and 2 of 6 (dose: 75.0 mg/kg/injection, schedule: Q01DX009 (ip), vehicle: saline); 6 of 6 under setting [2]; 4 of 6 (dose: 115.0 mg/kg/injection, schedule: Q04DX003 (ip), vehicle: saline); 0 of 6 (dose: 170.0 mg/kg/injection, schedule: Q04DX003 (ip), vehicle: saline).

As for `COc1cc2c(cc1OC)-c1c(C)c3ccc(OC)c(NCCN)c3c[n+]1CC2`, the T/C (dose: 12.5 mg/kg/injection, schedule: Q04DX003 (ip), vehicle: water) is 130 % of control. Moreover, the survivor count (dose: 50.0 mg/kg/injection, schedule: Q04DX003 (ip), vehicle: water) is 0 of 6 and 5 of 5.

`CC(=O)OCC(=O)C1CCC=CC1OC(C)=O` (stereo not drawn): the survivor count is on record as 3 of 6 (dose: 25.0 mg/kg/injection, schedule: Q04DX003 (ip), vehicle: saline); 5 of 6 (dose: 50.0 mg/kg/injection, schedule: Q04DX003 (ip), vehicle: saline); 6 of 6 under setting [3]; 5 of 6 (dose: 200.0 mg/kg/injection, schedule: Q04DX003 (ip), vehicle: saline). Besides, the T/C under setting [3] was 127 % of control.

In the case of `CCCCCCCCCCCC[N+](C)(C)CCCCCC[N+](C)(C)CCCCCCCCCCCC`, the survivor count under setting [1] is 0 of 6; the survivor count (dose: 100.0 mg/kg/injection, schedule: Q01DX009 (ip), vehicle: saline) was 0 of 6; the survivor count (dose: 200.0 mg/kg/injection, schedule: Q01DX009 (ip), vehicle: saline) is given as 0 of 6.

Regarding `CC(=O)CC(C)=O.CC(=O)CC(C)=O.[NH-]C1CCCCC1.[NH-]C1CCCCC1.[Ni+2]`, the T/C is 131 % of control [5 of 6 alive] (dose: 75.0 mg/kg/injection, schedule: Q04DX003 (ip), vehicle: saline with Tween-80) and 129 % of control under setting [2].

With `CC(C)CCOP(=S)(N1CC1)N1CC1`, the T/C was 136 % of control (dose: 100.0 mg/kg/injection, schedule: Q04DX003 (ip), vehicle: saline with Tween-80) and 131 % of control (dose: 200.0 mg/kg/injection, schedule: Q04DX003 (ip), vehicle: saline with Tween-80).

On to `C[C@]12CCC(=O)C=C1CC[C@@H]1[C@@H]2[C@@H](O)C[C@@]2(C)[C@H]1CC[C@]2(O)C(=O)CO`, for which, for the setting “dose: 50.0 mg/kg/injection, schedule: Q01DX010 (sc), vehicle: steroid suspending solution”, the T/C is 130 % of control. The survivor count (dose: 400.0 mg/kg/injection, schedule: Q01DX010 (sc), vehicle: steroid suspending solution) is listed as 6 of 6.

As for `NC(=NCc1ccccc1)c1ccc(N=C(N)c2ccc(C(N)=Nc3ccc(C(N)=NCc4ccccc4)cc3)cc2)cc1`, the T/C by setting is: (dose: 6.6 mg/kg/injection, schedule: Q01DX009 (ip), vehicle: saline) 125 % of control; (dose: 10.0 mg/kg/injection, schedule: Q01DX009 (ip), vehicle: saline) 133 % of control; (dose: 15.0 mg/kg/injection, schedule: Q01DX009 (ip), vehicle: saline) 141 % of control.

With `Cc1nc2ccccc2nc1CI`, the T/C is 133 % of control (dose: 4.5 mg/kg/injection, schedule: Q01DX009 (ip), vehicle: alcohol); 130 % of control (dose: 6.75 mg/kg/injection, schedule: Q01DX009 (ip), vehicle: saline); 127 % of control (dose: 9.0 mg/kg/injection, schedule: Q01DX009 (ip), vehicle: alcohol); 127 % of control (dose: 18.0 mg/kg/injection, schedule: Q01DX009 (ip), vehicle: alcohol); 125 and 140 % of control (dose: 26.0 mg/kg/injection, schedule: Q01DX009 (ip), vehicle: saline). Further, the survivor count reads like this: (dose: 40.0 mg/kg/injection, schedule: Q01DX009 (ip), vehicle: saline) 5 of 6; (dose: 60.0 mg/kg/injection, schedule: Q01DX001 (ip), vehicle: Klucel (hydroxypropylcellulose) (HPC)) 1 of 6; (dose: 60.0 mg/kg/injection, schedule: Q01DX009 (ip), vehicle: saline) 5 of 6; (dose: 60.0 mg/kg/injection, schedule: Q04DX003 (ip), vehicle: saline) 3 of 6; (dose: 90.0 mg/kg/injection, schedule: Q04DX003 (ip), vehicle: saline) 2 of 6; (dose: 120.0 mg/kg/injection, schedule: Q01DX001 (ip), vehicle: Klucel (hydroxypropylcellulose) (HPC)) 0 of 6. In addition, the survivor count (dose: 135.0 mg/kg/injection, schedule: Q04DX003 (ip), vehicle: saline) is 0 of 6.

In the case of `CN=C(NC#N)NCCSCc1nc[nH]c1C`, the T/C by setting is: (dose: 12.5 mg/kg/injection, schedule: Q01DX005 (ip), vehicle: Klucel (hydroxypropylcellulose) (HPC)) 129 % of control; (dose: 50.0 mg/kg/injection, schedule: Q01DX005 (ip), vehicle: Klucel (hydroxypropylcellulose) (HPC)) 125 % of control.

Take `COc1ccc2c(c1)N=C1CCCC3CCCCC123` (stereo not drawn): the survivor count (dose: 400.0 mg/kg/injection, schedule: Q04DX003 (ip), vehicle: saline with Tween-80) was 2 of 6.

On to `C=CC[N+](CC=C)(CC=C)CCC[N+](CC=C)(CC=C)CC=C`, for which the survivor count (dose: 100.0 mg/kg/injection, schedule: Q04DX003 (ip), vehicle: water) was 1 of 6.

Consider `CCC12C=CCN3CCC4(c5cc(C(c6ccc(OC)cc6)c6c(CN7CCCCC7)c7ccccc7n6C)c(OC)cc5N(C)C4C(O)(C(=O)OC)C1OC(C)=O)C32` (stereo not drawn), for which the survivor count reads like this: (dose: 0.3 mg/kg/injection, schedule: Q01DX009 (ip), vehicle: saline) 6 of 6; (dose: 0.6 mg/kg/injection, schedule: Q01DX009 (ip), vehicle: saline) 6 of 6; (dose: 4.0 mg/kg/injection, schedule: Q01DX009 (ip), vehicle: saline) 6 of 6; (dose: 8.0 mg/kg/injection, schedule: Q01DX009 (ip), vehicle: saline) 5 of 6; (dose: 16.0 mg/kg/injection, schedule: Q01DX009 (ip), vehicle: saline) 6 of 6.

In the case of `Nc1nc(Cl)nc2c1ncn2C1OC(CO)C(O)C1O` (stereo not drawn), the T/C (dose: 25.0 mg/kg/injection, schedule: Q01DX010 (ip), vehicle: carboxymethylcellulose (CMC)) was 142 % of control; the T/C (dose: 56.25 mg/kg/injection, schedule: Q01DX009 (ip), vehicle: saline) is 141 % of control; the T/C (dose: 74.25 mg/kg/injection, schedule: Q01DX009 (ip), vehicle: saline) was 136 % of control [5 of 6 alive]. The survivor count by setting is: (dose: 200.0 mg/kg/injection, schedule: Q01DX010 (ip), vehicle: carboxymethylcellulose (CMC)) 4 of 6; (dose: 225.0 mg/kg/injection, schedule: Q01DX009 (ip), vehicle: saline) 1 of 6; (dose: 400.0 mg/kg/injection, schedule: Q01DX010 (ip), vehicle: carboxymethylcellulose (CMC)) 4 of 6.

Take `CSc1ccc(NC(=O)CCl)cc1`: the survivor count (dose: 100.0 mg/kg/injection, schedule: Q01DX009 (ip), vehicle: saline with Tween-80) was 2 of 6.

As to `COC1(c2ccccc2)CN(Cc2ccccc2)CCO1` (stereo not drawn), the survivor count (dose: 400.0 mg/kg/injection, schedule: Q04DX003 (ip), vehicle: Klucel (hydroxypropylcellulose) (HPC)) is given as 5 of 6.
